# Experimental data as given in the supplement of paper PMC3484114.
# ± gives the standard deviation. This is a selection; strong and weak results do not stand in their true shares.
# Test system: OVCAR-3-derived ovarian cancer stem-like cells (spheroids)
# Test: cell growth relative to untreated control; higher = more growth (less inhibition)
# Conditions: 2.29 µM; 96 h
# Summary of the method: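 OVCAR-3 spheroid-derived stem-like cells were trypsin-dissociated, seeded at 50,000 cells/mL in stem cell medium in ultra-low attachment 96-well plates and preincubated 24 h. Compounds were then added at 2.29 uM for 96 h at 37°C, 5% CO2, in 4 replicate wells. Viability was read as TOX8 resazurin fluorescence (ex 560/em 590 nm) after 4 h. Percent growth was calculated relative to untreated wells after blank subtraction and Grubbs outlier removal.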
compound,measurement,value
COc1c(O)cc2c(c1OC)-c1ccc(OC)c(=O)cc1[C@@H](NC(C)=O)CC2,cell growth,21.7 ± 5.6%
